PubChem BioAssay AID504771, Drosophila RNAi Screening Center, 2011

Test: 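Fly cell regulators of aggregate formation by polyglutamine huntingtin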 (follow-up of hits)
Cell system: Drosophila S2 cells with copper-inducible mutant huntingtin exon 1 (46 glutamines)-eGFP
Knock-down reagent: long dsRNA against Drosophila genes, 250 ng dsRNA per well
Timing: 3 days of knock-down, then 2 days of copper induction before fixing
Conditions: copper sulfate at 400 µM to switch on Htt-Q46-eGFP expression
Read-out: 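Automated image analysis of GFP-tagged aggregates per well: number, size and intensity against plate mean and SD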
Hit rule: 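Primary candidate if any aggregate measure lay more than 2 SD from the plate mean; active only if it then passed checks for off-target effects, reproducibility, independent dsRNAs and a promoter counter-screen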
Meaning of the calls: active = confirmed modifier; inactive = primary candidate not confirmed
This is not the whole library: the list holds selected reagents. 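All genes were primary candidates; inactive means validation failed, not no effect; aggregate scores behind calls are not deposited.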 A number with no mark means an inactive call. Names joined by + are all predicted targets of the reagent. No sequences are given here.

| target | DRSC id | aggregation phenotype |
| --- | --- | --- |
| ZC3H3 | DRSC10696 | knock-down lowers aggregates (active) |
| MED19 | DRSC10516 | knock-down lowers aggregates |
| Prosbeta4 | DRSC02603 | knock-down lowers aggregates |
| Arf4 | DRSC17195 | knock-down lowers aggregates (active) |
| PyK | DRSC16806 | knock-down lowers aggregates (active) |
| Tbp | DRSC04662 | knock-down lowers aggregates |
| Tbp | DRSC23111 | knock-down lowers aggregates |
| CG3213 | DRSC00576 | knock-down lowers aggregates |
| RpL15 | DRSC20963 | knock-down lowers aggregates |
| Sym | DRSC12301 | knock-down lowers aggregates |
| CG13243 | DRSC01920 | knock-down lowers aggregates |
| heca | DRSC16964 | knock-down raises aggregates |
| heca | DRSC22990 | knock-down raises aggregates |
| RpS7 | DRSC15394 | knock-down lowers aggregates |
| pix | DRSC10533 | knock-down lowers aggregates |
| alphaTub84B | DRSC12622 | knock-down lowers aggregates |
| Dsp1 | DRSC20315 | knock-down lowers aggregates |
| Nup98-96 | DRSC14209 | knock-down lowers aggregates (active) |
| Nup98-96 | DRSC14210 | knock-down lowers aggregates |
| RpL39 | DRSC04651 | knock-down lowers aggregates |
| eIF3i | DRSC03464 | knock-down lowers aggregates (active) |
| CG13675 | DRSC10034 | knock-down lowers aggregates |
| Cdk7 | DRSC23327 | knock-down lowers aggregates |
| Nmt | DRSC11236 | knock-down lowers aggregates |
| CG5274 | DRSC11774 | knock-down raises aggregates (active) |
| Polr2K | DRSC05535 | knock-down lowers aggregates |
| Spn77Bb + Spn77Bc | DRSC10689 | knock-down raises aggregates |
| bin3 | DRSC04919 | knock-down raises aggregates (active) |
| pea | DRSC07120 | knock-down lowers aggregates (active) |
| sip1 | DRSC22648 | knock-down lowers aggregates |
| E(bx) | DRSC08509 | knock-down raises aggregates |
| E(bx) | DRSC08583 | knock-down raises aggregates |
| CG17168 | DRSC20904 | knock-down lowers aggregates |
| Wnk | DRSC11813 | knock-down lowers aggregates |
| CG18273 | DRSC18505 | knock-down lowers aggregates |
| Aos1 | DRSC14113 | knock-down lowers aggregates (active) |
| Dis3 | DRSC16034 | knock-down lowers aggregates |
| RpL18 | DRSC11016 | knock-down lowers aggregates |
| RpL18 | DRSC22323 | knock-down lowers aggregates |
| thr | DRSC07706 | knock-down lowers aggregates |
| ND-30 | DRSC08243 | knock-down lowers aggregates |
| OtopLc | DRSC18083 | knock-down lowers aggregates |
| RpL10Ab | DRSC10798 | knock-down lowers aggregates |
| Prosalpha5 | DRSC07514 | knock-down lowers aggregates (active) |
| CG34181 | DRSC01071 | knock-down lowers aggregates |
| His2B:CG33870 + His2B:CG33868 + His2B:CG33882 + 20 more | DRSC21265 | knock-down lowers aggregates |
| Polr2G | DRSC16068 | knock-down lowers aggregates |
| RpL17 | DRSC18293 | knock-down lowers aggregates |
| CG31386 (retired record) | DRSC22769 | knock-down raises aggregates |
| Caf1-55 | DRSC16596 | knock-down raises aggregates |
| C15 | DRSC14169 | knock-down raises aggregates |
| RpL7A | DRSC18709 | knock-down lowers aggregates |
| Ddx56 | DRSC20567 | knock-down lowers aggregates |
| RpS14a | DRSC18710 | knock-down lowers aggregates |
| CG33269 | DRSC10585 | knock-down raises aggregates |
| eEF2 | DRSC03737 | knock-down lowers aggregates |
| mge | DRSC08721 | knock-down raises aggregates (active) |
| SmD1 | DRSC09800 | knock-down lowers aggregates |
| CG12343 | DRSC06135 | knock-down lowers aggregates |
| MESR4 | DRSC06901 | knock-down raises aggregates (active) |
| CG12499 | DRSC14521 | knock-down lowers aggregates |
| RpS30 | DRSC15119 | knock-down lowers aggregates |
| tub | DRSC22800 | knock-down lowers aggregates |
| Uba1 | DRSC07567 | knock-down raises aggregates (active) |
| Tao | DRSC19573 | knock-down may raise aggregates (active) |
| CycE | DRSC03295 | knock-down raises aggregates |
| CycE | DRSC03296 | knock-down raises aggregates |
| Taf5 | DRSC07562 | knock-down raises aggregates |
| Nup358 | DRSC14410 | knock-down lowers aggregates (active) |
| MED28 | DRSC15721 | knock-down lowers aggregates |
| tau | DRSC14569 | knock-down raises aggregates |
| betaCOP | DRSC20312 | knock-down lowers aggregates |
| MED15 | DRSC00267 | knock-down lowers aggregates |
| eIF3f1 | DRSC12328 | knock-down lowers aggregates |
| Upf1 | DRSC19667 | knock-down raises aggregates (active) |

Entries listed so far marked active:
| target | DRSC id | aggregation phenotype |
| --- | --- | --- |
| ZC3H3 | DRSC10696 | knock-down lowers aggregates (active) |
| Arf4 | DRSC17195 | knock-down lowers aggregates (active) |
| PyK | DRSC16806 | knock-down lowers aggregates (active) |
| Nup98-96 | DRSC14209 | knock-down lowers aggregates (active) |
| eIF3i | DRSC03464 | knock-down lowers aggregates (active) |
| CG5274 | DRSC11774 | knock-down raises aggregates (active) |
| bin3 | DRSC04919 | knock-down raises aggregates (active) |
| pea | DRSC07120 | knock-down lowers aggregates (active) |
| Aos1 | DRSC14113 | knock-down lowers aggregates (active) |
| Prosalpha5 | DRSC07514 | knock-down lowers aggregates (active) |
| mge | DRSC08721 | knock-down raises aggregates (active) |
| MESR4 | DRSC06901 | knock-down raises aggregates (active) |
| Uba1 | DRSC07567 | knock-down raises aggregates (active) |
| Tao | DRSC19573 | knock-down may raise aggregates (active) |
| Nup358 | DRSC14410 | knock-down lowers aggregates (active) |
| Upf1 | DRSC19667 | knock-down raises aggregates (active) |
